{"sequences": {"note": "The chains behind the UniProt entries cited, without tags or fusion partners. Where a name states a change or a piece, a line headed by the entry shows the natural chain unless it says otherwise.", "UniProt Q8GRS2": "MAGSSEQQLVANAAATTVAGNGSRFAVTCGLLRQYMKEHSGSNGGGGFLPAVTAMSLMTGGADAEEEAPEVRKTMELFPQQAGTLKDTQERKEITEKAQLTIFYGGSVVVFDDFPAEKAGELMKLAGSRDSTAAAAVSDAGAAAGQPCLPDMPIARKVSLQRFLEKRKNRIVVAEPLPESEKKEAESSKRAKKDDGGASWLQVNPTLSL", "UniProt Q336P5": "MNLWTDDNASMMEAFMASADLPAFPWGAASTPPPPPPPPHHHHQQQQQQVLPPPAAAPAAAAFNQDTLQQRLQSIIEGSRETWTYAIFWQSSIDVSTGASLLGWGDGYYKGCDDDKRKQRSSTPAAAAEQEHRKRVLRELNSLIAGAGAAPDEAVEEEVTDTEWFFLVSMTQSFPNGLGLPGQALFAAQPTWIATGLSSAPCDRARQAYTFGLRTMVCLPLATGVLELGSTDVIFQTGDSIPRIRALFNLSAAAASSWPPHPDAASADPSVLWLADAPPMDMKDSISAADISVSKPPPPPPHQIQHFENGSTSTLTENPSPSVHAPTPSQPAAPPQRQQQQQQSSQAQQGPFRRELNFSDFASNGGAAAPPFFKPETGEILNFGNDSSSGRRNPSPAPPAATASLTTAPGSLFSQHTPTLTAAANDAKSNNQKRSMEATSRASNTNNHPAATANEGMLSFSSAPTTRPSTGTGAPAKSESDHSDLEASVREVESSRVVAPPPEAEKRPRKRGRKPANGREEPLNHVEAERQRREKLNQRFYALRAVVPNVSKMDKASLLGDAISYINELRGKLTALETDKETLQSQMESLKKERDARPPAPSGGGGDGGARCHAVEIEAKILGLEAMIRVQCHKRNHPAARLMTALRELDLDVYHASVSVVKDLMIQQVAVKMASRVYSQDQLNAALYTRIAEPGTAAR"}, "source": "paper PMC8213676", "about": "“OsJAZ11 regulates phosphate starvation responses in rice”", "molecular_target": "OsJAZ11 (pBD-OsJAZ11) (rice (Oryza sativa)) (UniProt Q8GRS2)", "test": "two-hybrid; Matchmaker Gold system, yeast strain Y2H Gold; bait in pGBKT7 (BD), prey in pGADT7 (AD); spotted on TDO, QDO and QDO with X-alpha-gal and Aureobasidin A; 30 °C, 3-4 days", "note": "No constants are given. Whether binding was seen depends on the method and setting. Binding can be weak; no strength is given."}
{"substance": "OsMYC2 (pAD-OsMYC2) (from UniProt Q336P5 1-699)", "values": [{"measurement": "binding", "result": "binds"}]}
